For 23 sequences, binding signal results are on record in PMC7819943, “Rice protein-binding microarrays: a tool to detect cis-acting elements near promoter regions in rice”.

This is one part of the list.

This test has as its target T1, OsSMF1 (Oryza sativa, UniProt Q6ZLB0 1-436).
T1 sequence: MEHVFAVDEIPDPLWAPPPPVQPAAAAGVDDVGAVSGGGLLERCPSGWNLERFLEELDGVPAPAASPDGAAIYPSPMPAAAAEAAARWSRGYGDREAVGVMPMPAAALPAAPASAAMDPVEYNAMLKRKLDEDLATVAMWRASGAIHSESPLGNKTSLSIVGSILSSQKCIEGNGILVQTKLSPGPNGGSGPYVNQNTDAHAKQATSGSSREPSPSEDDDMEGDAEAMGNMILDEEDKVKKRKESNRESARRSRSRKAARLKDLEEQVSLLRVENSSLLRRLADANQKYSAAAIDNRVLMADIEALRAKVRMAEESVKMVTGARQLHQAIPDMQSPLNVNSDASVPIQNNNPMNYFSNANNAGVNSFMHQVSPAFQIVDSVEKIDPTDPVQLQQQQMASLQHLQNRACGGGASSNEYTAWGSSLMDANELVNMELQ
In words: protein-binding microarray (RPBM); PBS, 2% BSA, 51.3 ng/ul salmon testes DNA, 50 uM zinc acetate, 200 nM TF, 25 C, 1 h; high values mean tight binding. Conditions: protein: recombinant; tags: N-terminal polyhistidine and DsRed monomer fusion (pET32a); chain copies: 2; label: CyDye5-dUTP incorporated in the synthesized complementary strand; 3' TTTTT single-stranded linker to array surface; dsDNA, one strand shown. The essentials:
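Per-feature fluorescence intensity (arbitrary units), read on an Axon 4000B scanner, is the binding signal. Transcription factors carrying an N-terminal polyhistidine tag and DsRed fusion were expressed in E. coli BL21-CodonPlus and purified on Ni–NTA. A custom Agilent array, made double-stranded by primer extension with Cy5-dUTP and blocked with 2% BSA, was incubated with 200 nM protein in PBS, 2% BSA, salmon testes DNA and 50 µM zinc acetate at 25 °C for 1 h and then washed.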
Consider “ACTAGTCCACTGTTCGGGAATGATCCAATTATTTATTTGTCGGAGTCACCTAGTGCAG”, for which the binding signal was 27600 fluorescence intensity (a.u.). Regarding “TACTTTGAATCTATGTCCATTTGCTGAGCAGGTACCTTTGCGGAGTCACCTAGTGCAG”, the binding signal was 3430 fluorescence intensity (a.u.). On to “CCTTCGTGCGTGGCGTGAGTTGGAATCCTAGAAAAGATCGCGGAGTCACCTAGTGCAG”, for which the binding signal is 3200 fluorescence intensity (a.u.).

For “GTGTCACTCGTGTAGTAGGATGGCAATGGGGCGGGTCGGGCGGAGTCACCTAGTGCAG”, the binding signal was 4250 fluorescence intensity (a.u.).

In the case of “TTACTGATGCGGTGATGCCGATATGATATTTGTCCATCTTCGGAGTCACCTAGTGCAG”, the binding signal is 3310 fluorescence intensity (a.u.). In the case of “TCATGCGCGAGGGACGATCTGGCCGTCCACGTGTCCCAGCCGGAGTCACCTAGTGCAG”, the binding signal is 17200 fluorescence intensity (a.u.). As to “GGCACGCGTGCGGATCCTGCCACGTAGCCATGGGGCCCACCGGAGTCACCTAGTGCAG”, the binding signal is 11900 fluorescence intensity (a.u.).

With “CGAATTATTACGGCCATCCGTAGTCACCACCTCCTTTGACCGGAGTCACCTAGTGCAG”, the binding signal was 3540 fluorescence intensity (a.u.).

In the case of “AATTTGTATTCAATGCTTCATACACGTGTCCAATGATTTACGGAGTCACCTAGTGCAG”, the binding signal was 6390 fluorescence intensity (a.u.).

Turning to “TTTCCCCGGTGGATCGTGTTCGGACACGTCGCGGCCCCTCCGGAGTCACCTAGTGCAG”, the binding signal is 6200 fluorescence intensity (a.u.).

For “TTGGCGCCTCCATCAACCGTCCACGTCGTCTTCGGCCTCACGGAGTCACCTAGTGCAG”, the binding signal is 4560 fluorescence intensity (a.u.).

On to “GAACTAGACGAACAGTATAAATCCGGGTTCGAGGGTTCAACGGAGTCACCTAGTGCAG”, for which the binding signal is 8130 fluorescence intensity (a.u.).

For the sequence “TCGGGATCCGGCCTTACCAGGGGCACCGCCGCCGACGCCGCGGAGTCACCTAGTGCAG”, the binding signal is 18700 fluorescence intensity (a.u.). As for “CTCCTCAGTTCTCAACATGTGGGCCGAATTCTTTACTGTGCGGAGTCACCTAGTGCAG”, the binding signal was 3990 fluorescence intensity (a.u.).

With “GTAAAGAATGTCTCATCATCATCGGTCCCTTGTCCGTTGTCGGAGTCACCTAGTGCAG”, the binding signal is 4130 fluorescence intensity (a.u.). As to “ACATCTCGTCCACGCTTAGTCATCAATATAGCAATATAAACGGAGTCACCTAGTGCAG”, the binding signal was 3460 fluorescence intensity (a.u.). “TTATTACTATCGCCACGTCTCTCCCGGCTCCCTCTATTTTCGGAGTCACCTAGTGCAG”: the binding signal is 6380 fluorescence intensity (a.u.). On to “AAAATAGTGGAAAGGTATATACCTCGATCTTCATGTCGAGCGGAGTCACCTAGTGCAG”, for which the binding signal was 3340 fluorescence intensity (a.u.). Consider “ATAGTACAATCGTAGTGTAATTACACTGTAACTTGCATGTCGGAGTCACCTAGTGCAG”, for which the binding signal was 3300 fluorescence intensity (a.u.). Turning to “AATTTGCGTGCGCTGCTGAGGTCAGAGGGAGACAGATTGGCGGAGTCACCTAGTGCAG”, the binding signal is 3420 fluorescence intensity (a.u.). Consider “CTAACACCGACCCCTTTACCATGTTTGCATCACCACCGGACGGAGTCACCTAGTGCAG”, for which the binding signal was 3730 fluorescence intensity (a.u.). On to “TAGTACCAAAGTATTTGTGTGTCACTATGATGTCCTGCCTCGGAGTCACCTAGTGCAG”, for which the binding signal was 6010 fluorescence intensity (a.u.). For “ACCGCTCCTCCTCCTCCTCGTCGGTAGGGGCGTGTGTGCGCGGAGTCACCTAGTGCAG”, the binding signal is 3280 fluorescence intensity (a.u.).
